In the assay the target is GSK3β-Flag fusion protein (pcGSK3B-Flag) (UniProt P49841). Put plainly: co-IP.

Protein sequences, listed by entry. Tags and fused reporters are not part of them.
UniProt P49841: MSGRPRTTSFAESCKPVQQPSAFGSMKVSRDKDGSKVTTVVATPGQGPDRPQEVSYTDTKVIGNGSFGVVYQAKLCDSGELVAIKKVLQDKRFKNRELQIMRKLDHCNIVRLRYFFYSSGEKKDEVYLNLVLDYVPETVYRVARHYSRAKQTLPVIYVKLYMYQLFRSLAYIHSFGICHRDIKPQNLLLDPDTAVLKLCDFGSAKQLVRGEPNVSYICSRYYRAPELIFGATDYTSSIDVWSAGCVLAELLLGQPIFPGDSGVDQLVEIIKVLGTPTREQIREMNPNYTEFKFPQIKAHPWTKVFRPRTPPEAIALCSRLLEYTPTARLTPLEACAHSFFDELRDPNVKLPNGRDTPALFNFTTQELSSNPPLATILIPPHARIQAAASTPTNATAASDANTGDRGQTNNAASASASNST

These are yes or no findings as the source states them, for the method shown. In cells and extracts the contact can be indirect. Some entries that bind do so weakly or less than the wild type. Where a sequence is shown, tags or fusion partners need not be part of it.

B1: TBK1 co-precipitated with GSK3β-Flag from HEK293 cells (enzyme, UniProt Q9UHD2 1-729)
chain: MQSTSNHLWLLSDILGQGATANVFRGRHKKTGDLFAIKVFNNISFLRPVDVQMREFEVLKKLNHKNIVKLFAIEEETTTRHKVLIMEFCPCGSLYTVLEEPSNAYGLPESEFLIVLRDVVGGMNHLRENGIVHRDIKPGNIMRVIGEDGQSVYKLTDFGAARELEDDEQFVSLYGTEEYLHPDMYERAVLRKDHQKKYGATVDLWSIGVTFYHAATGSLPFRPFEGPRRNKEVMYKIITGKPSGAISGVQKAENGPIDWSGDMPVSCSLSRGLQVLLTPVLANILEADQEKCWGFDQFFAETSDILHRMVIHVFSLQQMTAHKIYIHSYNTATIFHELVYKQTKIISSNQELIYEGRRLVLEPGRLAQHFPKTTEENPIFVVSREPLNTIGLIYEKISLPKVHPRYDLDGDASMAKAITGVVCYACRIASTLLLYQELMRKGIRWLIELIKDDYNETVHKKTEVVITLDFCIRNIEKTVKVYEKLMKINLEAAELGEISDIHTKLLRLSSSQGTIETSLQDIDSRLSPGGSLADAWAHQEGTHPKDRNVEKLQVLLNCMTEIYYQFKKDKAERRLAYNEEQIHKFDKQKLYYHATKAMTHFTDECVKKYEAFLNKSEEWIRKMLHLRKQLLSLTNQCFDIEEEVSKYQEYTNELQETLPQKMFTASSGIKHTMTPIYPSSNTLVEMTLGMKKLKEEMEGVVKELAENNHILERFGSLTMDGGLRNVDCL
For B1, the binding result was “binds”.
